Where “and” joins values, the source holds several entries; their conditions need not be identical. Equal values may be shown once. Hit rate of the full screen: of about 300,000 compounds, about 3,700 (1.2%) were called active. Inconclusive means that the source gave no clear call. Such entries were picked first, then a sample of the others. Calls follow the shape of the full dose curve; tested in HEK293 cells. Potencies beside an inconclusive call are fits to weak or partial responses and may not hold up.
assay: qHTS for Inhibitors of binding or entry into cells for Lassa Virus; conditions: Lassa virus pseudotype entry inhibition, cell reporter; series mostly up to 37.9 µM; also: nearly all actives have a fitted effect of over 50% in size
Potency is read from the fitted curve at half-maximal effect.

SMILES	Potency
Cc1nnc(SCC(=O)NCc2ccc3c(c2)OCO3)[nH]c1=O	inactive
Cc1c(Cl)cccc1NC(=O)Cn1c(=O)n(Cc2ccco2)c(=O)c2oc3ccccc3c21	inactive
COC(=O)c1c(Oc2ccc(Br)cc2)nnc(-c2ccccc2)c1-c1ccccc1	inconclusive: 8.91 µM [inhibitor, partial curve, poor fit]
COc1cc(C2NC(=O)NC(c3ccccc3)=C2C(C)=O)c(Br)cc1OCC(N)=O (configuration not stated)	inconclusive: 31.6 µM [activator, single point]
Cc1cc(NC(=O)C(C)SCC(=O)N(C)Cc2c(F)cccc2Cl)no1 (configuration not stated)	inconclusive: 22.4 µM [inhibitor, single point]
Cc1ccc(C(C)(C)C)cc1S(=O)(=O)Nc1cccc(C(=O)N2CCN(c3ccccn3)CC2)c1	inconclusive: 15.8 µM [inhibitor, single point]
O=C(NNc1nc(=O)c2cccnc2s1)c1ccccc1O	inconclusive: 35.5 µM [inhibitor, single point]
CCn1c(O)c(C=Nc2ccccc2)n(-c2ccccc2)c1=S	inconclusive: 14.1 µM [inhibitor, partial curve]
CCOC(=O)c1sc(NC(=O)c2ccc(CC)s2)nc1C	inconclusive: 10.3 µM [inhibitor, partial curve, poor fit]
Cc1c(Cl)cccc1NC(=S)N1CCN(Cc2ccc3c(c2)OCO3)CC1	inconclusive: 7.08 µM [inhibitor, partial curve, poor fit]
CO/N=C/C(=N\Nc1cc(OC)cc(OC)c1)C(=O)c1ccccc1	inconclusive: 2.51 µM [inhibitor, partial curve, poor fit]
CN1C(=O)c2ccccc2Sc2ccc(NC(=O)N3CCN(c4cccc(Cl)c4)CC3)cc21	inconclusive: 28.2 µM [inhibitor, single point]
CCC1CCCCN1S(=O)(=O)c1ccc(C(=O)Nc2nnc(-c3cccs3)o2)cc1 (configuration not stated)	inconclusive: 5.01 µM [inhibitor, full curve]
O=C1Nc2ccccc2/C1=N\N=C\c1ccc(O)c(O)c1	inconclusive: 7.08 µM [inhibitor, partial curve, poor fit]
CCOC(=O)c1cc2c(=O)n3ccccc3nc2n(C(C)C)c1=NC(=O)c1c(-c2c(F)cccc2Cl)noc1C	inconclusive: 8.91 µM [inhibitor, partial curve, poor fit] and inconclusive: 1.58 µM [inhibitor, partial curve, poor fit]
CCCCCn1c(CN2CCN(C(=O)OCC)CC2)nc2c1c(=O)[nH]c(=O)n2C	inconclusive: 3.66 µM [inhibitor, partial curve, poor fit]
Cc1ccc(-n2c(-c3ccccc3)n[nH]c2=S)cc1	inactive
Cc1cc(C)c(S(=O)(=O)N2CCOC2CNC(=O)C(=O)NCCc2c[nH]c3ccccc23)c(C)c1 (configuration not stated)	inconclusive: 29.1 µM [inhibitor, single point]
CCOC(=O)N1CCN(C(=O)COC(=O)c2ccc(N(C)C)cc2)CC1	active: 2.51 µM
COc1ccc(NC(=O)COc2ccccc2Cc2ccccc2)cc1S(N)(=O)=O	inconclusive: 7.94 µM [inhibitor, partial curve, poor fit]
CC(=O)Nc1ccc(S(=O)(=O)Nc2nc3ccccc3nc2Sc2nncn2C)cc1	inconclusive: 29.1 µM [activator, single point]

SMILES	Potency
CCn1c(C)nc2cc(C(=O)OC(C(F)(F)C(F)F)C(F)(F)C(F)F)ccc21	inconclusive: 35.5 µM [inhibitor, single point]
CCOC(=O)N1CCN(C(=O)CCSc2ccc(C)cc2)CC1	inconclusive: 1.26 µM [inhibitor, full curve, poor fit]
CCN(c1cc(C)cc(C)c1)S(=O)(=O)c1nnc(NC(=O)c2ccccc2C)s1	inconclusive: 15.8 µM [inhibitor, single point]
Cc1ccc(N(CC(=O)N2CCN(c3cccc(C)c3C)CC2)S(=O)(=O)c2c(C)nn(C)c2C)cc1	inconclusive: 3.98 µM [inhibitor, single point]
NS(=O)(=O)c1ccc(Sc2ccc3ccccc3c2)nc1	inconclusive: 35.5 µM [inhibitor, single point]
Nc1ccc(-c2nc3ccc(N)cc3s2)cc1	inconclusive: 8.91 µM [inhibitor, partial curve, poor fit]
CCc1c(C)nc2ncnn2c1NCc1cccs1	inactive
Cc1ccc(S(=O)(=O)N2CCC(C(=O)NNC(=O)c3cccnc3)CC2)cc1	inconclusive: 14.1 µM [activator, single point]
Cn1cc(-c2nc3ccccc3[nH]2)c2ccccc21	inactive
CCOC(=O)C1(Cc2cccc(Cl)c2)CCCN(C(=O)c2cc(C)n(C)n2)C1 (configuration not stated)	inconclusive: 8.91 µM [inhibitor, partial curve, poor fit]
C/C(=N\Nc1ccccc1)c1cccc(N)c1	inconclusive: 35.5 µM [inhibitor, single point]
Cc1cc(N2CCN(C3CCCC3)CC2)n2c(nc3ccccc32)c1C#N	inactive
O=C(CN1CCN(Cc2ccccc2)CC1)N1CCCc2c1c(=O)oc1ccc(O)cc21	inconclusive: 9.2 µM [inhibitor, partial curve]
O=C(CCc1ccccc1)Nc1ccccc1OC(=O)c1ccccc1	inconclusive: 11.2 µM [activator, single point]
Cc1ccc2cc(C)c(SCC(=O)Nc3cc(C)on3)nc2c1	inconclusive: 11.2 µM [inhibitor, partial curve, poor fit]
COc1ccc(C(=O)c2cccc(C(=O)c3ccc(OC)c(C)c3)c2)cc1C	inactive
COc1ccccc1/C=N/NC(=O)c1c(-c2ccccc2)noc1C	inactive
Brc1c(Br)c(Br)c2[nH]cnc2c1Br	inconclusive: 18.3 µM [inhibitor, partial curve]
COc1ccc(-c2nn(C)c(=O)c3ccccc23)cc1NC(=O)Cn1nc(C)c2ccccc2c1=O	inconclusive: 10.3 µM [inhibitor, partial curve, poor fit]
Cc1ccc(C(=O)NC2CCCCCC2)cc1N1CCCC1=O	inconclusive: 2.91 µM [inhibitor, partial curve, poor fit]
N#CC1=C(N)N2C(=C(C#N)C1c1ccc(Br)cc1)Nc1ccccc12 (configuration not stated)	inconclusive: 14.6 µM [inhibitor, partial curve, poor fit]

Single values from above:
Under Potency, O=C(NNc1nc(=O)c2cccnc2s1)c1ccccc1O is listed with inconclusive: 35.5 µM [inhibitor, single point]
Under Potency, COc1ccccc1/C=N/NC(=O)c1c(-c2ccccc2)noc1C is listed with inactive

(more compounds)

SMILES	Potency
COc1ccc(-c2cc(C(F)(F)F)nc(SCC(=O)N(C)Cc3ccccc3)n2)cc1	inconclusive: 10 µM [inhibitor, single point]
COc1ccc(CN=C(Nc2ccccc2)SC2CC(=O)NC2=O)cc1 (configuration not stated)	inconclusive: 2.24 µM [inhibitor, partial curve, poor fit]
COC(=O)c1cc(C)sc1NC(=O)CC1Nc2ccccc2NC1=O (configuration not stated)	inconclusive: 0.562 µM [inhibitor, full curve, poor fit]
COc1ccc(C(CNC(=O)c2ccccc2SC)N(C)C)cc1 (configuration not stated)	inconclusive: 0.1 µM [activator, full curve, poor fit]
COc1ccc(CCNC(=O)c2ccc3c(c2)CCN3S(=O)(=O)c2ccc(C)cc2)cc1OC	inconclusive: 35.5 µM [inhibitor, single point]
COc1ccc(N2CCN(/C(=N\S(=O)(=O)c3ccccc3)Nc3nc(C)cc(C)n3)CC2)cc1	inconclusive: 3.66 µM [inhibitor, partial curve, poor fit]
Cn1c(N)c(C(=O)COC(=O)c2ccc3c(c2)C(=O)N(c2ccc(Cl)cc2)C3=O)c(=O)n(C)c1=O	inactive
N#Cc1cc(-c2ccccc2)nc(NN)n1	inconclusive: 35.5 µM [inhibitor, single point]
Cc1cccc(NC(=O)c2ccc(Cn3nc(N4CCN(c5ccccc5)CC4)ccc3=O)o2)c1C	inactive
COCC(=O)NC(C)c1nc2ccccc2[nH]1 (configuration not stated)	inactive
Cc1ccc(-c2nn(-c3ccccc3)cc2CSC(=N)N)cc1	inconclusive: 35.5 µM [inhibitor, single point]
Cc1sc2nc(C)n(/N=C/c3ccccc3)c(=O)c2c1C	inactive
Cc1ccc(N/C=C/C(=O)c2sc(-c3ccccc3)nc2C)cc1	inconclusive: 11.2 µM [inhibitor, partial curve, poor fit]
COc1cccc2c1C(=O)c1c(O)c3c(c(O)c1C2=O)CC(O)(C(C)=O)CC3OC1CC(N(C)C)C(O)C(C)O1 (configuration not stated)	inconclusive: 1.12 µM [inhibitor, full curve, poor fit]
CCC1(c2ccccc2)NC(=O)N(CC(=O)Nc2cc(S(=O)(=O)N3CCCCCC3)ccc2OC)C1=O (configuration not stated)	inconclusive: 35.5 µM [inhibitor, single point]
CCN(CC)c1nn2c(=O)c(C(=O)NCc3ccccc3Br)cnc2s1	inconclusive: 6.31 µM [inhibitor, partial curve, poor fit]
COCCN(CC1CCCN(C2Cc3ccccc3C2)C1)C(=O)c1cccs1 (configuration not stated)	inactive
Cn1nc(C(=O)NCc2ccccc2Cl)c2c1-c1ccccc1SC2	inactive
COc1cccc(C(=O)Nc2nc(C)cs2)c1	inconclusive: 3.98 µM [activator, partial curve, poor fit]
CCc1ccc(-c2[nH]nc3nc(-c4cc(OC)ccc4OC)cc(C(=O)O)c23)cc1	inconclusive: 25.1 µM [inhibitor, single point]

An excerpt from above in order of formula weight, largest number first.
SMILES	Potency
Cn1c(N)c(C(=O)COC(=O)c2ccc3c(c2)C(=O)N(c2ccc(Cl)cc2)C3=O)c(=O)n(C)c1=O	inactive
Cc1ccc(S(=O)(=O)N2CCC(C(=O)NNC(=O)c3cccnc3)CC2)cc1	inconclusive: 14.1 µM [activator, single point]
Cc1ccc(N/C=C/C(=O)c2sc(-c3ccccc3)nc2C)cc1	inconclusive: 11.2 µM [inhibitor, partial curve, poor fit]

Source: PubChem BioAssay AID540256 (National Center for Advancing Translational Sciences (NCATS), 2011)
